# Measured values taken from paper PMC8157631.
# The chains behind the UniProt entries cited, without tags or fusion partners. Residues count along the entry.
# UniProt Q00604, residues 25-133: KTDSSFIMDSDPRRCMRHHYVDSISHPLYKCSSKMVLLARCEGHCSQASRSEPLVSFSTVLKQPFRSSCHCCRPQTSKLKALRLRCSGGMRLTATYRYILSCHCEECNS
# Results are given in words; binding and its absence hold for the method and conditions named. In cells and extracts the contact can be indirect. Tags and fused reporters may be left off the sequences shown.
# T1: Retinoschisin (RS1) (human (endogenous in human retina)) (UniProt O15537)
# T1 sequence: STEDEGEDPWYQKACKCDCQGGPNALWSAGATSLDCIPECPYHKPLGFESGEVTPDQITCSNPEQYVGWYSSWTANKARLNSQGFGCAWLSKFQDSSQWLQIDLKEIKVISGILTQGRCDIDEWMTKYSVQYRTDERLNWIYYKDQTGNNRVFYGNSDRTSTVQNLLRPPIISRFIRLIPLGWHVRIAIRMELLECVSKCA
# B1: Retinoschisin (RS1) (protein, UniProt O15537 24-224)
# chain: T1 sequence
# Columns and labels:
# [1] = target: T1, Retinoschisin (RS1) (human (endogenous in human retina)); assay: co-IP; co-immunoprecipitation from human donor retinal tissue with RS1 or NDP antibody, immunoblot of the IP fraction
# [2] = target: Norrin (NDP) (human (endogenous in human retina)) (UniProt Q00604); assay: as above
Molecule,binding [1],binding [2]
Norrin (NDP) (from UniProt Q00604 25-133),no binding,–
B1,–,no binding
